Drawing on PubChem BioAssay AID1273 (Columbia University Molecular Screening Center, 2008), this text covers normalized cell count for 31 compounds.

The other results are listed elsewhere or left out. These are further read-outs of the screen, such as a control signal, another cell line or another target. No call is given for them. The list favours compounds with an active or inconclusive main result.

The nature of the assay: inhibitors of insulin promoter-driven GFP, primary screen, imaging, TRM-6 cells (human fetal islet line), eGFP reporter, cell count (AID 1273;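 note: cells exposed to compound for 48 h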). Conditions: measured here: cell count, toxicity, at 2 µM, reporter expression induced with tamoxifen.
The compound `CCc1nn(-c2ccccc2)c(N)c1C#N` registered a normalized cell count of 162%. With `O=C(Nc1nc(-c2nc3ccccc3s2)cs1)c1ccco1` the figure was 105%. The result for `Cc1cc(C)c(OCC(=O)Nc2ccc(NC(=O)c3ccco3)cc2)c([N+](=O)[O-])c1` reads 76.3%; that for `CCNc1nc(Oc2ccc(=O)[nH]n2)nc(N2CCOCC2)n1`, 97.7%; that for `CNC(=O)Nc1cccc(C(F)(F)F)c1`, 130%.

`Cc1ccc2c(n1)CC(C)(C)C/C2=N\O` registered a normalized cell count of 148%. With `O=C(NCCc1ccccc1)NC1CCCCC1` the figure was 146%; with `Cc1nn(-c2ccccc2)c(C)c1C(=O)OCC(=O)N1CC(=O)Nc2ccccc21`, 85.6%.

On to `COc1ccc(S(=O)(=O)N2CCc3ccccc32)cc1C(=O)OCc1nnc(-c2ccccc2)o1`, for which the normalized cell count stood at 131%. With `O=C1CCCN1CCCNc1ncnc2c1[nH]c1ccc(Cl)cc12` the figure was 112%; with `COC(=O)c1ccccc1NC(=O)C/C(C)=N/NC(=O)CC#N`, 101%. With `Cc1ccc(S(=O)(=O)N(C)CC(=O)Nc2cccc(C)n2)cc1` the figure was 38.1%; with `COc1ccc(CCNC(=O)CCc2ccc(S(=O)(=O)NC(C)C)cc2)cc1`, 46.7%. The result for `Cc1oc(-c2ccccc2F)nc1CN1CCC(C(=O)NC2CCCc3ccccc32)CC1` (stereo unspecified) reads 49.9%. With `N#Cc1c(NC(=O)CCn2cnc3ccccc3c2=O)oc(-c2ccccc2)c1-c1ccccc1`, the normalized cell count amounted to 50.9%.

The compound `Cc1ccc2c(c1)N(CC(=O)NC1CCCc3ccccc31)C(=O)CO2` (stereo unspecified) came in with a normalized cell count of 104%. `CCc1nnc(NC(=O)CSc2nc(C)c3c(c2C#N)CCCC3)s1` had a normalized cell count of 84.9%.

With `Cc1ccc2nc(NC(=O)CN(C)S(=O)(=O)c3ccc(Br)s3)sc2c1`, the normalized cell count turned out to be 69.3%.

On to `C/C(Cl)=C\Cn1c(=O)c2c(nc3n2CCS3)n(C)c1=O`, for which the normalized cell count turned out to be 90.5%. The result for `CCc1nc(Nc2ccc3c(c2)OCCO3)c2oc3ccccc3c2n1` reads 85.4%; that for `O=C(NCc1cccs1)C12CC3CC(CC(C3)C1)C2`, 79.1%. With `O=C(O)c1ccc2c(c1)C(=O)N(C(Cc1ccc(O)cc1)C(=O)O)C2=O` (stereo unspecified) the figure was 157%. The result for `CCCCN=c1sc(C(=O)OC)cc(=O)n1CCCC` reads 171%; that for `O=C(Nc1ccc2c(c1)CCC2)C1CCCO1` (stereo unspecified), 110%. `CCCc1cc(-c2n[nH]c(=S)n2CC)cs1` showed a normalized cell count of 110%. In the case of `C=CCNc1nc(SCC=C)nc2ccsc12`, the normalized cell count was determined as 111%. As to `COc1cccc(-c2ccc(SCC(=O)c3ccccc3)nn2)c1`, the normalized cell count was found to be 75.8%. With `COC(=O)c1c(NC(=O)CN2CCC3(O)CCCCC3C2c2cc(OC)ccc2OC)sc(C)c1C` (stereo unspecified) the figure was 122%; with `CCn1c(=O)n(-c2ccc(Cl)cc2)c(=O)c2c3c(sc21)COC(C)(C)C3`, 65.7%. With `O=C(CSCc1ccc(Cl)cc1)Nc1cccc(C(=O)Nc2ccccc2C(=O)O)c1` the figure was 153%.

`CCCCNC(=O)CCc1nc2cccnc2n1Cc1ccc(OC)cc1`: the normalized cell count is 83.8%.
